These results are taken from publication PMC11982563.

The chains behind the UniProt entries cited, without tags or fusion partners.
UniProt Q80SW1: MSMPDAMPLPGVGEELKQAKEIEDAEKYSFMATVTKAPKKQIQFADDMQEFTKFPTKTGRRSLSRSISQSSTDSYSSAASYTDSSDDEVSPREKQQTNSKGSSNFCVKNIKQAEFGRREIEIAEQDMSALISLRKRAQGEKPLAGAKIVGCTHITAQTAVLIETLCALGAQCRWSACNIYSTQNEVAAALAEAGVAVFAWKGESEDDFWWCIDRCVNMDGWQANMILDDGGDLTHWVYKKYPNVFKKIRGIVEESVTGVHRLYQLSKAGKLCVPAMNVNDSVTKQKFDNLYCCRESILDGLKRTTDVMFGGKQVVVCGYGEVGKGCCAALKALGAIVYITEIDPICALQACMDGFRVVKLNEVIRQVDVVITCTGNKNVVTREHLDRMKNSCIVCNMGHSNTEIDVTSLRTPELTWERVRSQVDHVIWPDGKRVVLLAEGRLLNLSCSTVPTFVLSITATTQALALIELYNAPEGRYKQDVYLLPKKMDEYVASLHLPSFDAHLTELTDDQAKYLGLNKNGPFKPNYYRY

Test [1] addresses T1, Myc-ANO1 (mouse) (UniProt Q8BHY3).
T1 sequence: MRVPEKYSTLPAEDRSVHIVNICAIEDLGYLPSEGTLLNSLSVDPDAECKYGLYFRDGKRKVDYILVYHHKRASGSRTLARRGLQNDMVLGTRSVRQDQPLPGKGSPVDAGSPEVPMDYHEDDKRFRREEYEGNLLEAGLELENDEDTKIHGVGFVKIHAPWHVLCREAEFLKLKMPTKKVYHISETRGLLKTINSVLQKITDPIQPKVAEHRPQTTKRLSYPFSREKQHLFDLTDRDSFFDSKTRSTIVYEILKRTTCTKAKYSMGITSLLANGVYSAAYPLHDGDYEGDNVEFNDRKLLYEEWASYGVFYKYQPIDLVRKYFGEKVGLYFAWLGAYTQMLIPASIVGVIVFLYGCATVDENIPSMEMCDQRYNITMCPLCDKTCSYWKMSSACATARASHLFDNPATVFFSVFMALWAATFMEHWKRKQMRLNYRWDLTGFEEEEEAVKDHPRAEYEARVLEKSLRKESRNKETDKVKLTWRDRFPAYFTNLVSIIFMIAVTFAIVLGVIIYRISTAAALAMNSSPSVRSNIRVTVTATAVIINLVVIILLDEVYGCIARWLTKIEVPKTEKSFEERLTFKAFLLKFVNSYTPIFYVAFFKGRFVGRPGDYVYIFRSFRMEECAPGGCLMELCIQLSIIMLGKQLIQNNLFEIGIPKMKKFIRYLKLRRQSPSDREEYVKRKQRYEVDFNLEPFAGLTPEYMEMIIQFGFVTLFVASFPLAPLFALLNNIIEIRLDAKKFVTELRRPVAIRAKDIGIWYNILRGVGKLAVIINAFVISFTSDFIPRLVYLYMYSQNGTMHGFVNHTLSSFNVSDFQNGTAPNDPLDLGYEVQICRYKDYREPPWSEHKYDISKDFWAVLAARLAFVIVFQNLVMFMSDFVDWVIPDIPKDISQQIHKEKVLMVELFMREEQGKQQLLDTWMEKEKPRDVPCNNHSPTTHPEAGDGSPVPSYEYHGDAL
The test can be described thus: co-IP; HEK293T cells transfected 18-24 h, vehicle or forskolin/IBMX 10 min at 37 C, surface biotinylated, lysed in 20 mM Tris, 150 mM NaCl, 2 mM EDTA, 1% Triton X-100; which protein was precipitated is not told.

The target of test [2] is T2, ANO1-YFP (mouse) (UniProt Q8BHY3).
T2 sequence: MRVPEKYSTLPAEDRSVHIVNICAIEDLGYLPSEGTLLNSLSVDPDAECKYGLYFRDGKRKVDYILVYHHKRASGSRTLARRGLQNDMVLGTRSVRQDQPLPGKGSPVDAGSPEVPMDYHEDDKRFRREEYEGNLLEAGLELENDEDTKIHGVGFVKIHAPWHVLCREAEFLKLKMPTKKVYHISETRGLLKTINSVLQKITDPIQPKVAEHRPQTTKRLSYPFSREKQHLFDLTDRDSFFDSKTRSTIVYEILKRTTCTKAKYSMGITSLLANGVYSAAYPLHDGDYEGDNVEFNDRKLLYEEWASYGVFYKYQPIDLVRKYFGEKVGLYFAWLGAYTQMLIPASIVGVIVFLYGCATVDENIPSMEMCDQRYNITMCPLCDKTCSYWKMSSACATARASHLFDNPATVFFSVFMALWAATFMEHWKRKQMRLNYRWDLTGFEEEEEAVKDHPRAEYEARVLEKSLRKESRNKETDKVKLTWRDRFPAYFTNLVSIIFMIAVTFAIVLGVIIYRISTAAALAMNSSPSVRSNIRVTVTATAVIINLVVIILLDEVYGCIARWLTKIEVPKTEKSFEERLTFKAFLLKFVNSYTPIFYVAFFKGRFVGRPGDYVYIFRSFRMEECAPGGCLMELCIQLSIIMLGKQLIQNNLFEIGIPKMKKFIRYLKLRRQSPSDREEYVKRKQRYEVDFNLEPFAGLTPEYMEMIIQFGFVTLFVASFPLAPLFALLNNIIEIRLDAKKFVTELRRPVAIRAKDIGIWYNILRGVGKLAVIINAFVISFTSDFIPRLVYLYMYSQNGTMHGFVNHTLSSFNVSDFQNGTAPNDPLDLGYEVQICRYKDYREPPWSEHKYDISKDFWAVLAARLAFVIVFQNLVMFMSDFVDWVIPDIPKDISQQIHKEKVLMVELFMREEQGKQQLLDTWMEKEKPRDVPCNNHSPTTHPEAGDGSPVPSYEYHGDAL
The test can be described thus: FRET or BRET; fluorescently tagged proteins co-expressed in HEK293 cells on glass-bottom dishes, live cells in bath solution; imaged before and after 2.5 uM forskolin + 50 uM IBMX; also with CPA, siRNA of ACs and AKAPs, STIM1-/- cells and co-expressed VAPA, E-Syt1, E-Syt2, AC8 or AKAP5. On the technique in general: Bioluminescence resonance energy transfer reports proximity on the nanometre scale.

In test [3] the target is T1, Myc-ANO1 (mouse). Description: co-IP; HEK293T cells transfected 18-24 h, vehicle or forskolin/IBMX 10 min at 37 C, surface biotinylated, lysed in 20 mM Tris, 150 mM NaCl, 2 mM EDTA, 1% Triton X-100; which protein was precipitated is not told. This is another data set of the same source.
Test [4] has as its target T2, ANO1-YFP (mouse). The test can be described thus: FRET or BRET; fluorescently tagged proteins co-expressed in HEK293 cells on glass-bottom dishes, live cells in bath solution; imaged before and after 2.5 uM forskolin + 50 uM IBMX; also with CPA, siRNA of ACs and AKAPs, STIM1-/- cells and co-expressed VAPA, E-Syt1, E-Syt2, AC8 or AKAP5. This is another data set of the same source.

Where two headings read alike, the source gives them in different places. Results are given in words; binding and its absence hold for the method and conditions named. Binding seen in cells or lysates may run through a third protein. Some entries that bind do so weakly or less than the wild type. Tags and fused reporters may be left off the sequences shown.

Consider Flag-IRBIT (from UniProt Q80SW1 1-530), for which the binding entry with Myc-ANO1 (mouse) [1] is recorded as “binds”.
Turning to IRBIT-CFP (from UniProt Q80SW1 1-530), the binding entry in the test with ANO1-YFP (mouse) [2] is reported as “binds”.

B1: E-Syt1 (protein, UniProt Q9BSJ8 1-1104)
chain: MERSPGEGPSPSPMDQPSAPSDPTDQPPAAHAKPDPGSGGQPAGPGAAGEALAVLTSFGRRLLVLIPVYLAGAVGLSVGFVLFGLALYLGWRRVRDEKERSLRAARQLLDDEEQLTAKTLYMSHRELPAWVSFPDVEKAEWLNKIVAQVWPFLGQYMEKLLAETVAPAVRGSNPHLQTFTFTRVELGEKPLRIIGVKVHPGQRKEQILLDLNISYVGDVQIDVEVKKYFCKAGVKGMQLHGVLRVILEPLIGDLPFVGAVSMFFIRRPTLDINWTGMTNLLDIPGLSSLSDTMIMDSIAAFLVLPNRLLVPLVPDLQDVAQLRSPLPRGIIRIHLLAARGLSSKDKYVKGLIEGKSDPYALVRLGTQTFCSRVIDEELNPQWGETYEVMVHEVPGQEIEVEVFDKDPDKDDFLGRMKLDVGKVLQASVLDDWFPLQGGQGQVHLRLEWLSLLSDAEKLEQVLQWNWGVSSRPDPPSAAILVVYLDRAQDLPLKKGNKEPNPMVQLSIQDVTQESKAVYSTNCPVWEEAFRFFLQDPQSQELDVQVKDDSRALTLGALTLPLARLLTAPELILDQWFQLSSSGPNSRLYMKLVMRILYLDSSEICFPTVPGCPGAWDVDSENPQRGSSVDAPPRPCHTTPDSQFGTEHVLRIHVLEAQDLIAKDRFLGGLVKGKSDPYVKLKLAGRSFRSHVVREDLNPRWNEVFEVIVTSVPGQELEVEVFDKDLDKDDFLGRCKVRLTTVLNSGFLDEWLTLEDVPSGRLHLRLERLTPRPTAAELEEVLQVNSLIQTQKSAELAAALLSIYMERAEDLPLRKGTKHLSPYATLTVGDSSHKTKTISQTSAPVWDESASFLIRKPHTESLELQVRGEGTGVLGSLSLPLSELLVADQLCLDRWFTLSSGQGQVLLRAQLGILVSQHSGVEAHSHSYSHSSSSLSEEPELSGGPPHITSSAPELRQRLTHVDSPLEAPAGPLGQVKLTLWYYSEERKLVSIVHGCRSLRQNGRDPPDPYVSLLLLPDKNRGTKRRTSQKKRTLSPEFNERFEWELPLDEAQRRKLDVSVKSNSSFMSRERELLGKVQLDLAETDLSQGVARWYDLMDNKDKGSS
As to B1, the binding result with Myc-ANO1 (mouse) [3] and with ANO1-YFP (mouse) [4] was “binds” in each case.

B2: E-Syt2 (protein, UniProt A0FGR8 1-921)
chain: MTANRDAALSSHRHPGCAQRPRTPTFASSSQRRSAFGFDDGNFPGLGERSHAPGSRLGARRRAKTARGLRGHRQRGAGAGLSRPGSARAPSPPRPGGPENPGGVLSVELPGLLAQLARSFALLLPVYALGYLGLSFSWVLLALALLAWCRRSRGLKALRLCRALALLEDEERVVRLGVRACDLPAWVHFPDTERAEWLNKTVKHMWPFICQFIEKLFRETIEPAVRGANTHLSTFSFTKVDVGQQPLRINGVKVYTENVDKRQIILDLQISFVGNCEIDLEIKRYFCRAGVKSIQIHGTMRVILEPLIGDMPLVGALSIFFLRKPLLEINWTGLTNLLDVPGLNGLSDTIILDIISNYLVLPNRITVPLVSEVQIAQLRFPVPKGVLRIHFIEAQDLQGKDTYLKGLVKGKSDPYGIIRVGNQIFQSRVIKENLSPKWNEVYEALVYEHPGQELEIELFDEDPDKDDFLGSLMIDLIEVEKERLLDEWFTLDEVPKGKLHLRLEWLTLMPNASNLDKVLTDIKADKDQANDGLSSALLILYLDSARNLPSGKKISSNPNPVVQMSVGHKAQESKIRYKTNEPVWEENFTFFIHNPKRQDLEVEVRDEQHQCSLGNLKVPLSQLLTSEDMTVSQRFQLSNSGPNSTIKMKIALRVLHLEKRERPPDHQHSAQVKRPSVSKEGRKTSIKSHMSGSPGPGGSNTAPSTPVIGGSDKPGMEEKAQPPEAGPQGLHDLGRSSSSLLASPGHISVKEPTPSIASDISLPIATQELRQRLRQLENGTTLGQSPLGQIQLTIRHSSQRNKLIVVVHACRNLIAFSEDGSDPYVRMYLLPDKRRSGRRKTHVSKKTLNPVFDQSFDFSVSLPEVQRRTLDVAVKNSGGFLSKDKGLLGKVLVALASEELAKGWTQWYDLTEDGTRPQAMT
On to B2, for which the binding entry with Myc-ANO1 (mouse) [3] and with ANO1-YFP (mouse) [4] was “binds” each time.
